# This is one part of the list.
# The chains behind the UniProt entries cited, without tags or fusion partners. Where a name states a change or a piece, a line headed by the entry shows the natural chain unless it says otherwise.
# UniProt Q6N075: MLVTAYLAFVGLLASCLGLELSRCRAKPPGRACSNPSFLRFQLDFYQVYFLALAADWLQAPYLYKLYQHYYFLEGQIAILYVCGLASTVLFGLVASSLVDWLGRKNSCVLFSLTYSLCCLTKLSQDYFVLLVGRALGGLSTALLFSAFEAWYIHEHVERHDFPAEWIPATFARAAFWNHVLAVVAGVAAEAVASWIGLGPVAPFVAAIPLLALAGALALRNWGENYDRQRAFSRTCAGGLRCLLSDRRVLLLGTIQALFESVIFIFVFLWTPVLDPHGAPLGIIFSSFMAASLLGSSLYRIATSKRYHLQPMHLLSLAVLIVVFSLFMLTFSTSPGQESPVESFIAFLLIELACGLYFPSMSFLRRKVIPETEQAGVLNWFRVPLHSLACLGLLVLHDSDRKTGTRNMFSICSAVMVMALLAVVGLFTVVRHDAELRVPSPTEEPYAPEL
# UniProt Q93074, whole entry, looked up: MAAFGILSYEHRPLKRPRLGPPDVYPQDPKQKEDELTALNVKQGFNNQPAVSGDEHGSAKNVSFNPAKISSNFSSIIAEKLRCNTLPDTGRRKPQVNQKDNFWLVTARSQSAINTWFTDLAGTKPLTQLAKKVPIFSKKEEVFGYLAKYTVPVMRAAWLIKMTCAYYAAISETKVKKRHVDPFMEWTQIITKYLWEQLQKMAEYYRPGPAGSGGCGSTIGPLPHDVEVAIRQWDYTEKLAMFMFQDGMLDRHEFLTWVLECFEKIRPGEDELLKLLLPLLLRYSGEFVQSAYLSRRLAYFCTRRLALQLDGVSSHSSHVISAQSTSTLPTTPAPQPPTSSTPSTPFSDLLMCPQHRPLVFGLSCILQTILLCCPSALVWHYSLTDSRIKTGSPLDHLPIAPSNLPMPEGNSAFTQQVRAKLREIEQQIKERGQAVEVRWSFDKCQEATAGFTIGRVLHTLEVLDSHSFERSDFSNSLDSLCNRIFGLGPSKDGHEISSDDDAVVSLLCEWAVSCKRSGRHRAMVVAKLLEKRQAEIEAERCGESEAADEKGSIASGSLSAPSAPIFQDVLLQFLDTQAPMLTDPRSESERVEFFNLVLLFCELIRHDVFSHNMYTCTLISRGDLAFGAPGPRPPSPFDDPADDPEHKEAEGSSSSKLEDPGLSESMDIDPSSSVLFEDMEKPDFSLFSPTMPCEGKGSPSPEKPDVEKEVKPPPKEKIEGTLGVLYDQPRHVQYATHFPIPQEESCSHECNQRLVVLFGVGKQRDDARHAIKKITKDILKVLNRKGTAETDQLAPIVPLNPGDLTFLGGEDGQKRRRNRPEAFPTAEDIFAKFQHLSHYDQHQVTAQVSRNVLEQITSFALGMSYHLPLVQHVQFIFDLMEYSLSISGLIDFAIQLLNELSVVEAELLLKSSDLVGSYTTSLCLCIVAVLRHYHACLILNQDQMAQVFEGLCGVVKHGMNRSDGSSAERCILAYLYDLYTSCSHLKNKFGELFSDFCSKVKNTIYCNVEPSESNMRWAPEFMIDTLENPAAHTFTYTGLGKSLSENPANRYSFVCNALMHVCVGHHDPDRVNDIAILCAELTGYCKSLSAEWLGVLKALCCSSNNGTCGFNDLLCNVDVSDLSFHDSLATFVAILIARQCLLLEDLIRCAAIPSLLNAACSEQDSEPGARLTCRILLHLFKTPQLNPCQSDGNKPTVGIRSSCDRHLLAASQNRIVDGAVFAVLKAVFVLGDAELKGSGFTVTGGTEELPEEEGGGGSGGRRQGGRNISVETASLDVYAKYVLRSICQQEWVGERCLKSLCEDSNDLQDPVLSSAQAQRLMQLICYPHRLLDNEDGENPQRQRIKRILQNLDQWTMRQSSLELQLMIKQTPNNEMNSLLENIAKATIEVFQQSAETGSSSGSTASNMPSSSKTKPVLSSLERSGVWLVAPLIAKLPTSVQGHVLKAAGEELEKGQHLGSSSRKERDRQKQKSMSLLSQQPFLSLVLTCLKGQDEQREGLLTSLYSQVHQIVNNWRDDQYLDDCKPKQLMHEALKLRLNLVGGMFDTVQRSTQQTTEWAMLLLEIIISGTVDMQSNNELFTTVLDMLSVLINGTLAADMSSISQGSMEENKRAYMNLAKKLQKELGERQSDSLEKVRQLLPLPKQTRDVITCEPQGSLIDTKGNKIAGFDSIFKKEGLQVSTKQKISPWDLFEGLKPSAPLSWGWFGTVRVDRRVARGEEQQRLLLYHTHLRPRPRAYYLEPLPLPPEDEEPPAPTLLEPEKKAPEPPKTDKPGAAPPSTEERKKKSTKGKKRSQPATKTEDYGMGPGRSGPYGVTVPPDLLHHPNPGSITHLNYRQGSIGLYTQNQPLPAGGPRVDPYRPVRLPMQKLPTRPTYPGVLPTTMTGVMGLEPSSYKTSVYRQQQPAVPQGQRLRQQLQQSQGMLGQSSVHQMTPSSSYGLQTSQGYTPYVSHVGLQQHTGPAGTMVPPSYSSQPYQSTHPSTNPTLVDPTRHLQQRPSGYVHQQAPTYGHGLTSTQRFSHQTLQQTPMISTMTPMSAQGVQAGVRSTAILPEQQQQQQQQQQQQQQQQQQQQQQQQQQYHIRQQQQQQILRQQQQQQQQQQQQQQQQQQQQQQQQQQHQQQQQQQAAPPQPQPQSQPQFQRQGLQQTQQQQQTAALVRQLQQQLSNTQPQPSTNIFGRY
# UniProt Q9BTT4: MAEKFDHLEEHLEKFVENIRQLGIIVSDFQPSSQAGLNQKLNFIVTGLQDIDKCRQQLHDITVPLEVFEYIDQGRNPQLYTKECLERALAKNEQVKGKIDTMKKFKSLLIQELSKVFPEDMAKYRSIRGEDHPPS
# UniProt Q8NI22: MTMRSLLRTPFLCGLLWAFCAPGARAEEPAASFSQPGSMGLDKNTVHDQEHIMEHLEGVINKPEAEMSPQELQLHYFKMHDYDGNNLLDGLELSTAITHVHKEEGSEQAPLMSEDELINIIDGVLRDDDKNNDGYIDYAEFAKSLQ
# UniProt Q6P9B6: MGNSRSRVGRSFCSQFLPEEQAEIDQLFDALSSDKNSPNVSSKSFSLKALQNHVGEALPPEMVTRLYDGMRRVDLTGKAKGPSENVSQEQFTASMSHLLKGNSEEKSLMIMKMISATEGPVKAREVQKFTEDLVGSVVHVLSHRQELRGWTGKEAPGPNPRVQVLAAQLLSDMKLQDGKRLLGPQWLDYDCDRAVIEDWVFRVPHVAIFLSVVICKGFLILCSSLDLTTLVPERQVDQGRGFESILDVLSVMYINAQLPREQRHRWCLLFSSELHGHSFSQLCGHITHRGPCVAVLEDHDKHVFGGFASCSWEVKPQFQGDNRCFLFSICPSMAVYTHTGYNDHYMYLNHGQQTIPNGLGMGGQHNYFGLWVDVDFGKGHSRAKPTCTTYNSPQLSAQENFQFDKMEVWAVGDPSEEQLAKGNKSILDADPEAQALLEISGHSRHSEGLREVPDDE
# UniProt Q8NHS3: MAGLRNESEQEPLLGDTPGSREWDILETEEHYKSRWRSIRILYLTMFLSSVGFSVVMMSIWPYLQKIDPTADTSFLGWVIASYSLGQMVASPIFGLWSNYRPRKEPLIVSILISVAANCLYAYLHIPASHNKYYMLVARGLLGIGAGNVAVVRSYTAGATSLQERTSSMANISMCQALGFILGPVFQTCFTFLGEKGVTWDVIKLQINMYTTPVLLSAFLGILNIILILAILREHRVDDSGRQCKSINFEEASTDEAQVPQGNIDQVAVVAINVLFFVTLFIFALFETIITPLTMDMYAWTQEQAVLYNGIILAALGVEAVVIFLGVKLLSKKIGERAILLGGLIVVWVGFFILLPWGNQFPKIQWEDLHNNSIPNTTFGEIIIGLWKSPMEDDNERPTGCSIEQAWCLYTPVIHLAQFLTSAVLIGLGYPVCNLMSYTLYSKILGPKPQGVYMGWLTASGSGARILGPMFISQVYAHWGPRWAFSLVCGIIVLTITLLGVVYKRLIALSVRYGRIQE
# UniProt Q9NRN9: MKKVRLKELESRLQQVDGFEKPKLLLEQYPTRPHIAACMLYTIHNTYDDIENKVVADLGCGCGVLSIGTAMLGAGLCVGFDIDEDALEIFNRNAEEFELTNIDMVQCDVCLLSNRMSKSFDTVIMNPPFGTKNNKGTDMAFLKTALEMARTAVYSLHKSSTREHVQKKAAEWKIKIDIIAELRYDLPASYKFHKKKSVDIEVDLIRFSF
# UniProt P43243: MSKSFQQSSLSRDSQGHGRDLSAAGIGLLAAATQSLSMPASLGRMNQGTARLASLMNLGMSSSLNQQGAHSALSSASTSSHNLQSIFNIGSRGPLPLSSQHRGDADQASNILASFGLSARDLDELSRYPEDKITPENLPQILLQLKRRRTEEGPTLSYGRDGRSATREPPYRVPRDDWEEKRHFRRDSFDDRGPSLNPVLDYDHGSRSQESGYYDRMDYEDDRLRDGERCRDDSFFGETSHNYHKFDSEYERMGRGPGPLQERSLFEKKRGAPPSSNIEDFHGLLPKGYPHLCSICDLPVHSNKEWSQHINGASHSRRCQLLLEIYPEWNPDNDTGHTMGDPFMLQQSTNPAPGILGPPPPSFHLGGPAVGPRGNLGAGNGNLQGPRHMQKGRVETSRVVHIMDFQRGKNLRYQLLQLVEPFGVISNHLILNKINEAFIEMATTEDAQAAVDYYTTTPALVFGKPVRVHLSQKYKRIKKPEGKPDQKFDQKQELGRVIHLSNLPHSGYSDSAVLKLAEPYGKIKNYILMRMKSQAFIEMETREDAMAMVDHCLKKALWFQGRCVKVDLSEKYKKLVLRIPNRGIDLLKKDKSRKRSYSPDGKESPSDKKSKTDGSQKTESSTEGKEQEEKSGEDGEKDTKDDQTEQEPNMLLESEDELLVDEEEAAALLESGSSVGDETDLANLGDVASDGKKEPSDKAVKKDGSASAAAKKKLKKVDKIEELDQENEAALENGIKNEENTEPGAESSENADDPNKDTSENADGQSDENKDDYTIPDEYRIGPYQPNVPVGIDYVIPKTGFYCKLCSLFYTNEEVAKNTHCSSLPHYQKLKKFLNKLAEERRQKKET
# UniProt Q7L2J0: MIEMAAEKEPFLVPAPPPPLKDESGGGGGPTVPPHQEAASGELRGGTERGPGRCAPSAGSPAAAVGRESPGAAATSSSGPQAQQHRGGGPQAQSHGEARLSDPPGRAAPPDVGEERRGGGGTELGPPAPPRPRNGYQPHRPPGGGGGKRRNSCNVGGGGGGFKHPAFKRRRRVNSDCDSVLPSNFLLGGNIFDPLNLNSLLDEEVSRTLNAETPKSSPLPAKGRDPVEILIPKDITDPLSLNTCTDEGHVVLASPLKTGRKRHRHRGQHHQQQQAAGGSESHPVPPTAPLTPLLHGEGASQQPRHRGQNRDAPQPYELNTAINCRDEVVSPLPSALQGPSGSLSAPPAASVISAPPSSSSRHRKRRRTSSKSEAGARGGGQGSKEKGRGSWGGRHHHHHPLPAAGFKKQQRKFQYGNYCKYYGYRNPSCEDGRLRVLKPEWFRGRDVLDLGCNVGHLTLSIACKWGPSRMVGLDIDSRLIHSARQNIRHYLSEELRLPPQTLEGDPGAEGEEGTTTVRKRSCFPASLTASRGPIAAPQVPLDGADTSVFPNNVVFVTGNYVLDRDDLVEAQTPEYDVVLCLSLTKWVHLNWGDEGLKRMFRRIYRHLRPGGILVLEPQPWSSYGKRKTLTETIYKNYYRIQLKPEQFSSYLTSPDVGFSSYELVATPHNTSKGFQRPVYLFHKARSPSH
# UniProt O95568: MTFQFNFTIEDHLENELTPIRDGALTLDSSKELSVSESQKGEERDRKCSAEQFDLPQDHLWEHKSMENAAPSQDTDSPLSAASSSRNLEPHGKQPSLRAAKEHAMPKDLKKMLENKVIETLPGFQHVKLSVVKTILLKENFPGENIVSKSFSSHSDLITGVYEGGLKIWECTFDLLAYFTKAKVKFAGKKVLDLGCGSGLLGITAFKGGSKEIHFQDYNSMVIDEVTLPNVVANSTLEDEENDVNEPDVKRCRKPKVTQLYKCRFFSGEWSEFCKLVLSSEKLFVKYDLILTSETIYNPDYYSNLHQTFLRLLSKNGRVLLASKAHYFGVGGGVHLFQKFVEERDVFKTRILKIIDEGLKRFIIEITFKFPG
# UniProt Q6ZN04: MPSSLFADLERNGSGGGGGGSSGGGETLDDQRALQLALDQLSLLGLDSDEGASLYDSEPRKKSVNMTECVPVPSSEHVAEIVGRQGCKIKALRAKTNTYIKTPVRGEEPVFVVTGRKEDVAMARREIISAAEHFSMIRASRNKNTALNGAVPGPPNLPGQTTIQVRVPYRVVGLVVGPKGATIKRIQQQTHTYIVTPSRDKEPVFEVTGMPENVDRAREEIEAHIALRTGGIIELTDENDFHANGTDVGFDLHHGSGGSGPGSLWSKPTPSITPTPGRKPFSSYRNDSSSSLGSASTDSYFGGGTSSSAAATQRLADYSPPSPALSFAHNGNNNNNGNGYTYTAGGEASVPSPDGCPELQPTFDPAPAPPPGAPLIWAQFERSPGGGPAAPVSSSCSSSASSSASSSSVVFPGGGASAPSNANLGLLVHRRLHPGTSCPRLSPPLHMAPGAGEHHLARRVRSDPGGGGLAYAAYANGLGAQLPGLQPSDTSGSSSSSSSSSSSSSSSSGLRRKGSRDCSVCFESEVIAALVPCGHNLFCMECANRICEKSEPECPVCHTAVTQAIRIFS
# Compound: CC1=C(SC2=C1C(=N[C@H](C3=NN=C(N32)C)CC(=O)N)C4=CC=C(C=C4)Cl)C
# Assay: log2 fold change, soluble protein after heating vs DMSO (PISA); higher = thermal stabilisation; K562 lysate, 10 uM; active = over 0.2 and 3.5 SD of the protein, either way, in both replicates (recomputed)
# Summary of the method: (§1)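 Dounce homogenisation of K562 pellets in PBS pH 7.4 with 1 mM MgCl2 produced a crude extract, used at 1 mg/mL protein. Exposure to 10 μM compound lasted 30 min, and aliquots were then heated for 3 min across 48°C-58°C, pooled and brought to 0.5% NP-40 at 4°C. The supernatant after 21,000xg for 90 min was quantified by TMTpro 16plex LC-MS/MS with channel sums equalised. Duplicate values are given as log-two fold change in thermal stability relative to solvent controls.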
row,Target,log2 fold change
1,MBOAT2 (UniProt Q6ZWT7),inactive: 0
2,MCUR1 (UniProt Q96AQ8),inactive: -0.004
3,MED27 (UniProt Q6P2C8),inactive: -0.01
4,MFSD5 isoform 2 (UniProt Q6N075),inactive: 0.026
5,MED12 isoform 2 (UniProt Q93074),inactive: -0.024
6,MEF2A isoform 2 (UniProt Q02078),inactive: -0.026
7,MED26 (UniProt O95402),inactive: -0.024
8,MED10 (UniProt Q9BTT4),inactive: -0.033
9,MED1 (UniProt Q15648),inactive: 0.033
10,MCM6 (UniProt Q14566),inactive: 0
11,MCCC2 (UniProt Q9HCC0),inactive: -0.005
12,MED19 (UniProt A0JLT2),inactive: 0.161
13,MELTF (UniProt P08582),inactive: 0.013
14,MDC1 (UniProt Q14676),inactive: 0.025
15,MEA1 (UniProt Q16626),inactive: 0.007
16,METAP1 (UniProt P53582),inactive: 0.025
17,MCFD2 (UniProt Q8NI22),inactive: -0.189
18,MEAK7 (UniProt Q6P9B6),inactive: 0.057
19,MERTK (UniProt Q12866),inactive: -0.054

row,Target,log2 fold change
1,MFSD8 (UniProt Q8NHS3),inactive: 0.026
2,MDM2 isoform 11 (UniProt Q00987),inactive: -0.092
3,METTL5 (UniProt Q9NRN9),inactive: -0.006
4,MEF2C isoform 5 (UniProt Q06413),inactive: -0.041
5,MBLAC2 (UniProt Q68D91),inactive: -0.005
6,METAP1D (UniProt Q6UB28),inactive: 0.007
7,MED13 (UniProt Q9UHV7),inactive: 0.02
8,MATR3 (UniProt P43243),inactive: 0.038
9,MCAM (UniProt P43121),inactive: 0.012
10,MAT2B (UniProt Q9NZL9),inactive: 0.014
11,MED6 (UniProt O75586),inactive: -0.16
12,MEPCE (UniProt Q7L2J0),inactive: -0.01
13,MFN2 (UniProt O95140),inactive: -0.002
14,MED13L (UniProt Q71F56),inactive: 0.029
15,MAU2 (UniProt Q9Y6X3),inactive: 0.028
16,MDH2 (UniProt P40926),inactive: 0.004
17,METTL18 (UniProt O95568),inactive: 0.037
18,MCRS1 isoform 2 (UniProt Q96EZ8),inactive: 0
19,MEX3B (UniProt Q6ZN04),inactive: 0.121

# Compound: CC1=C2C(=CC=C1)N=C(N(C2=O)C3=CC=CC=C3C)CN4C=NC5=C(N=CN=C54)N
# Assay: as above
# Summary of the method: as §1
row,Target,log2 fold change
1,MBOAT2 (UniProt Q6ZWT7),inactive: 0.121
2,MCUR1 (UniProt Q96AQ8),inactive: -0.005
3,MED27 (UniProt Q6P2C8),inactive: 0.024
4,MFSD5 isoform 2 (UniProt Q6N075),inactive: -0.002
5,MED12 isoform 2 (UniProt Q93074),inactive: -0.019
6,MEF2A isoform 2 (UniProt Q02078),inactive: 0.134
7,MED26 (UniProt O95402),inactive: 0.065
8,MED10 (UniProt Q9BTT4),inactive: -0.04
9,MED1 (UniProt Q15648),inactive: 0.041
10,MCM6 (UniProt Q14566),inactive: 0.018
11,MCCC2 (UniProt Q9HCC0),inactive: -0.011
12,MED19 (UniProt A0JLT2),inactive: 0.019
13,MELTF (UniProt P08582),inactive: -0.022
14,MDC1 (UniProt Q14676),inactive: 0.019
15,MEA1 (UniProt Q16626),inactive: -0.045
16,METAP1 (UniProt P53582),inactive: -0.003
17,MCFD2 (UniProt Q8NI22),inactive: 0
18,MEAK7 (UniProt Q6P9B6),inactive: 0.047
19,MERTK (UniProt Q12866),inactive: 0.06

row,Target,log2 fold change
1,MFSD8 (UniProt Q8NHS3),inactive: 0.006
2,MDM2 isoform 11 (UniProt Q00987),inactive: -0.007
3,METTL5 (UniProt Q9NRN9),inactive: -0.011
4,MEF2C isoform 5 (UniProt Q06413),inactive: -0.005
5,MBLAC2 (UniProt Q68D91),inactive: 0.001
6,METAP1D (UniProt Q6UB28),inactive: -0.104
7,MED13 (UniProt Q9UHV7),inactive: -0.041
8,MATR3 (UniProt P43243),inactive: -0.007
9,MCAM (UniProt P43121),inactive: 0.009
10,MAT2B (UniProt Q9NZL9),inactive: -0.044
11,MED6 (UniProt O75586),inactive: 0.05
12,MEPCE (UniProt Q7L2J0),inactive: -0.037
13,MFN2 (UniProt O95140),inactive: 0.046
14,MED13L (UniProt Q71F56),inactive: 0.028
15,MAU2 (UniProt Q9Y6X3),inactive: 0.015
16,MDH2 (UniProt P40926),inactive: -0.017
17,METTL18 (UniProt O95568),inactive: 0.004
18,MCRS1 isoform 2 (UniProt Q96EZ8),inactive: 0.008

# From the supplement of paper PMC10849652
